According to the supplement of paper PMC10849652:
The list shows a part of the results.

The chains behind the UniProt entries cited, without tags or fusion partners. Where a name states a change or a piece, a line headed by the entry shows the natural chain unless it says otherwise.
UniProt Q9BUB7: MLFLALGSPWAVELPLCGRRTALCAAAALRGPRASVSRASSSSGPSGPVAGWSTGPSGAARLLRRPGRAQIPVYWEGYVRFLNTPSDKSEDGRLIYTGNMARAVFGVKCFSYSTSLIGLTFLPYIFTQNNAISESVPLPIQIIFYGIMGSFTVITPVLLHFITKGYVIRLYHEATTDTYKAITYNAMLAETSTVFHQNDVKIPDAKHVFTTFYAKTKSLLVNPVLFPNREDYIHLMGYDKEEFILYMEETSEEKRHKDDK
UniProt Q8NDZ6: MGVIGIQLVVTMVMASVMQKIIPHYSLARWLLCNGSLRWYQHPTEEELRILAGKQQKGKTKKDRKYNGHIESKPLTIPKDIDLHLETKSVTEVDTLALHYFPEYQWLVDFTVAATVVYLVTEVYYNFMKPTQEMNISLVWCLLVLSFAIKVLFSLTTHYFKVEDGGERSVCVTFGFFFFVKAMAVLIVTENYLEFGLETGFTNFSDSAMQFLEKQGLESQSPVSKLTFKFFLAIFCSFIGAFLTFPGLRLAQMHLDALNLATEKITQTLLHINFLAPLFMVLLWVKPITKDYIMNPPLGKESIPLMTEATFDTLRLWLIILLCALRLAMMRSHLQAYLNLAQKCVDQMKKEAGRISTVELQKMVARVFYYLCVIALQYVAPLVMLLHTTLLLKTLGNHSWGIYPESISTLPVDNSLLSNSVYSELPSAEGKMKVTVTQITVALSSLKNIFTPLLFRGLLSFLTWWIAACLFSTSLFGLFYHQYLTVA
UniProt Q86WV6: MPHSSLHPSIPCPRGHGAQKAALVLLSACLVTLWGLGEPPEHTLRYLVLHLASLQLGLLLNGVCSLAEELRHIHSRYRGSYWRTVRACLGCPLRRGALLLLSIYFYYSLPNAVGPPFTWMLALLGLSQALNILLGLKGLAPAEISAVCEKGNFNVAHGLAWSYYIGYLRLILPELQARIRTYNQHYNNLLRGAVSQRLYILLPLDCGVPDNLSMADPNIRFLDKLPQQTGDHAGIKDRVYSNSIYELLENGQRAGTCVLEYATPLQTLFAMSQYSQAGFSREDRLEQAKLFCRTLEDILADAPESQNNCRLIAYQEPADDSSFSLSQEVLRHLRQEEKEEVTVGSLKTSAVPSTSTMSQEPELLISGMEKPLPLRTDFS
UniProt Q9NUM4, whole entry, looked up: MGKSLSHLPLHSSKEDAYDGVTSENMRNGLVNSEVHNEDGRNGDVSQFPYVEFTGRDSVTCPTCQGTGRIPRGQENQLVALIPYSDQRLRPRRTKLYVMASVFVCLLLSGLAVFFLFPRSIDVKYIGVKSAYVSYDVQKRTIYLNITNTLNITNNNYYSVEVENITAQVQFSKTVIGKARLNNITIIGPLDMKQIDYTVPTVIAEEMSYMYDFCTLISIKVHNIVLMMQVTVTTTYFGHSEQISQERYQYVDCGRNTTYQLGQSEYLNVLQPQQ
UniProt Q9HCN3: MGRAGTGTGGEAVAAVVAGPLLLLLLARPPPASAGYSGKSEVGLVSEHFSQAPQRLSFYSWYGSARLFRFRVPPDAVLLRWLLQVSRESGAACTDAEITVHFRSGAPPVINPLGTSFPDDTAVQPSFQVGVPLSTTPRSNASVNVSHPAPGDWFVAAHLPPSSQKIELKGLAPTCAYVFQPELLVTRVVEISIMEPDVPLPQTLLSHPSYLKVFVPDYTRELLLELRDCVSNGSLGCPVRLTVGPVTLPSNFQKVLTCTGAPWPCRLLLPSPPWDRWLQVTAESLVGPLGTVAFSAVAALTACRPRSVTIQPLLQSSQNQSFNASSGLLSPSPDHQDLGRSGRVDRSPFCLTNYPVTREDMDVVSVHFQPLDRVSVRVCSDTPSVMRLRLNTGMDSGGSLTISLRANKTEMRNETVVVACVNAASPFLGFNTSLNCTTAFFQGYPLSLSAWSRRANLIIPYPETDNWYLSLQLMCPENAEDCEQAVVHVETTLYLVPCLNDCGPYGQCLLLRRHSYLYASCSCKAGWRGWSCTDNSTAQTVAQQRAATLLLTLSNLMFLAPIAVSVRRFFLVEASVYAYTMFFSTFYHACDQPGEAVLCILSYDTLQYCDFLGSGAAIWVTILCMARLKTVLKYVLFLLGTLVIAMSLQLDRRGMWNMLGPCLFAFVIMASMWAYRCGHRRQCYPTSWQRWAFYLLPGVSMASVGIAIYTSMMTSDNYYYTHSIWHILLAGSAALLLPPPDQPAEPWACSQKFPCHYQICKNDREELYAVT
UniProt Q9P0T7: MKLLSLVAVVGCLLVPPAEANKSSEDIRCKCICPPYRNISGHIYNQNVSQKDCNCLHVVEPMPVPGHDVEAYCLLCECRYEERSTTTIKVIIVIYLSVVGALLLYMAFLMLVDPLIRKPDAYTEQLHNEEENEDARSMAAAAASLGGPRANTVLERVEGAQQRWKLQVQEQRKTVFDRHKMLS
UniProt Q9BXJ8: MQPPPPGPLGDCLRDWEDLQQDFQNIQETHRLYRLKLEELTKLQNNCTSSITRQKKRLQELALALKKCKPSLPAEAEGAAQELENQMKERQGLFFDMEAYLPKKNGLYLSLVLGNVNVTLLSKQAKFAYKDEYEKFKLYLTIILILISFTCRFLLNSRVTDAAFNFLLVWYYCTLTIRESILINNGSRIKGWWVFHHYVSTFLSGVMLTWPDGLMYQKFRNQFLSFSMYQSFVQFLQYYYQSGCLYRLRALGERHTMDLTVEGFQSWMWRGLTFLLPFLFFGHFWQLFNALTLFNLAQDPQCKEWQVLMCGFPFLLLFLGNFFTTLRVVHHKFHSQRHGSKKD
UniProt Q969X1: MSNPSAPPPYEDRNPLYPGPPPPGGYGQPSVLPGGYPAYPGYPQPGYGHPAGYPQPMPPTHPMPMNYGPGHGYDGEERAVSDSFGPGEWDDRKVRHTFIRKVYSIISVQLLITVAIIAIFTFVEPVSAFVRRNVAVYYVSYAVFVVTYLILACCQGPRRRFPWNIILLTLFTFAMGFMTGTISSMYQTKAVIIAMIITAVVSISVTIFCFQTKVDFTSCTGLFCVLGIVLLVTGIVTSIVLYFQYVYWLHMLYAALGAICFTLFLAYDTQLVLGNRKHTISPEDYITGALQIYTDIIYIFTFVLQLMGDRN
UniProt Q9NX61: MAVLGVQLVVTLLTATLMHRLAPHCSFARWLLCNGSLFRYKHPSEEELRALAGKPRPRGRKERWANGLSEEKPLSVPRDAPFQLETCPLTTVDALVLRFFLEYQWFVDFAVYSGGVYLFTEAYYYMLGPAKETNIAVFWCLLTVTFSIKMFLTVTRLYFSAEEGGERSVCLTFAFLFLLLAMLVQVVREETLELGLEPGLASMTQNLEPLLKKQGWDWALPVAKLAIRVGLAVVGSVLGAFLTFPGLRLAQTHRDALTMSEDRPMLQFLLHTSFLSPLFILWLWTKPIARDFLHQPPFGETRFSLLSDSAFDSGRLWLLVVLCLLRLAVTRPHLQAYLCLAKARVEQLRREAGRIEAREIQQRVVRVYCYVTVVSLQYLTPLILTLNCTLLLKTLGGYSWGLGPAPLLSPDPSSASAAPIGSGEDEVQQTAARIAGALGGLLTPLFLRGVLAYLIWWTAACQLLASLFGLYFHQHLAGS
UniProt Q03169: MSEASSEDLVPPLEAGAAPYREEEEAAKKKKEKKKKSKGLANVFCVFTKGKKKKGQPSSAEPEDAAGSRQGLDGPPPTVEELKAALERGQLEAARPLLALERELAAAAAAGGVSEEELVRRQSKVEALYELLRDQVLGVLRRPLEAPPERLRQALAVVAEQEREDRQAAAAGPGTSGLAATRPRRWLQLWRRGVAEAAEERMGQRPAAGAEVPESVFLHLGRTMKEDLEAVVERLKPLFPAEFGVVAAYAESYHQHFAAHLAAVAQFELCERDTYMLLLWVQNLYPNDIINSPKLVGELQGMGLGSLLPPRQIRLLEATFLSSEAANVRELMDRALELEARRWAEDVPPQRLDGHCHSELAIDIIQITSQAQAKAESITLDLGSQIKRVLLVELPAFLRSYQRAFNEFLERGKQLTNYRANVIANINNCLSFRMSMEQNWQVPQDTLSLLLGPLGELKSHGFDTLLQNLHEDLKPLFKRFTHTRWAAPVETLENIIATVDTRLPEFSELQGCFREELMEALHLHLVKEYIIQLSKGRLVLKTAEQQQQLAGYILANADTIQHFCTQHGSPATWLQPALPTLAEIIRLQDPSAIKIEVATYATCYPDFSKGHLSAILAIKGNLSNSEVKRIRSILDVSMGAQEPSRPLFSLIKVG
UniProt O76062: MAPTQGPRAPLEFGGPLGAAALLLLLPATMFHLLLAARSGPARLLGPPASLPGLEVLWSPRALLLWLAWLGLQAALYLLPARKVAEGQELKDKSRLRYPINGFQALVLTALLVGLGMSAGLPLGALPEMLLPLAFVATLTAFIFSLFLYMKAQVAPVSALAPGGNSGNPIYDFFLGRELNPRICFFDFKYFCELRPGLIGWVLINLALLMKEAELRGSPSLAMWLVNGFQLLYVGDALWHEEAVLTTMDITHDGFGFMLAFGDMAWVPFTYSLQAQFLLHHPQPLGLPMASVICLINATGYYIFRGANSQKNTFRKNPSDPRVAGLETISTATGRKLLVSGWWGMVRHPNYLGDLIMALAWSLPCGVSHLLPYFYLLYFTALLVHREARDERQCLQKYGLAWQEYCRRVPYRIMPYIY
UniProt O95379: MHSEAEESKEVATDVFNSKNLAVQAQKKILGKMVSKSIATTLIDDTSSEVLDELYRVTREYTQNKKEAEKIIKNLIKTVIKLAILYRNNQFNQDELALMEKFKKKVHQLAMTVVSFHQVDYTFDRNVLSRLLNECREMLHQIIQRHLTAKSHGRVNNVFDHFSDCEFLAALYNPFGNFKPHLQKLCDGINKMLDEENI
UniProt Q6NUQ4: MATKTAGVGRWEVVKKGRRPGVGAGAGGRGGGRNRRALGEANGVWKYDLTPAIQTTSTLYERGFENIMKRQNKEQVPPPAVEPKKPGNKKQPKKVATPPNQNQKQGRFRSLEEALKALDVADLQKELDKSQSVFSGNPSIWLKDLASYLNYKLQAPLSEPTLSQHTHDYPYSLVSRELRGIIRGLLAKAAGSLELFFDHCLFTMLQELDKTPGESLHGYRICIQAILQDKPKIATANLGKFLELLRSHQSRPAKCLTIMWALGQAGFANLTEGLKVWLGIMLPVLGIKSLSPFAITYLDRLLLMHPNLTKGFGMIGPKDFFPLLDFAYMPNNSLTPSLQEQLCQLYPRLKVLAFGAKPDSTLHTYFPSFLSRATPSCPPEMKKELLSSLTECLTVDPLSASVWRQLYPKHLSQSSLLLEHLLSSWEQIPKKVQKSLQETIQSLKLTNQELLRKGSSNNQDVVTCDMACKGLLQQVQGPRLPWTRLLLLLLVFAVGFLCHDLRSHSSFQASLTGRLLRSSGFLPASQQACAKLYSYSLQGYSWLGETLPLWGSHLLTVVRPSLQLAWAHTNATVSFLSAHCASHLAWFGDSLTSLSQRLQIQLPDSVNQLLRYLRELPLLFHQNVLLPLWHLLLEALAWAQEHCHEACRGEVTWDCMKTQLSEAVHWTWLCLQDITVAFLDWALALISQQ
UniProt Q86UE8, whole entry, looked up: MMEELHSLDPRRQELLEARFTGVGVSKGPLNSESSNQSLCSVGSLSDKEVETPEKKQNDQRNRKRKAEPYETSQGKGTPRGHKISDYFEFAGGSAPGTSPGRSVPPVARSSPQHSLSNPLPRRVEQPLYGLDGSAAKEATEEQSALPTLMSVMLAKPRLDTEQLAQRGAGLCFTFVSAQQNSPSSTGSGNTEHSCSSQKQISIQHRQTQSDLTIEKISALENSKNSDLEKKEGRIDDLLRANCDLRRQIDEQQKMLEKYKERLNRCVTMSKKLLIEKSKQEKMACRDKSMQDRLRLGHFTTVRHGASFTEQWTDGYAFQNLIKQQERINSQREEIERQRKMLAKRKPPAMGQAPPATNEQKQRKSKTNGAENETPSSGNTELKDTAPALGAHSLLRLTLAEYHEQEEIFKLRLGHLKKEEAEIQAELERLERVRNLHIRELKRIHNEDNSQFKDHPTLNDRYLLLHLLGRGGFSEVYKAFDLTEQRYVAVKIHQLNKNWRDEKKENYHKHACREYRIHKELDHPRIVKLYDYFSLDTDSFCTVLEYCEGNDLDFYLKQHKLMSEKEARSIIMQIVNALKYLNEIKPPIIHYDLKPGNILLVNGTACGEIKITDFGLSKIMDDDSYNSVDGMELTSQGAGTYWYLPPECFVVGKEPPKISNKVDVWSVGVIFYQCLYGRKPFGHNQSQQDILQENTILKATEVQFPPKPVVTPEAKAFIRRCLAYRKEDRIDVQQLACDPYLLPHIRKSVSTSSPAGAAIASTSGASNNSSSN

Columns and labels:
Assay in all cases: log2 fold change, soluble protein after heating vs DMSO (PISA); higher = thermal stabilisation; K562 cells, 10 uM, 30 min; active = over 0.2 and 3.5 SD of the protein, either way, in both replicates (recomputed)
saracatinib = compound: CN1CCN(CCOc2cc(OC3CCOCC3)c3c(Nc4c(Cl)ccc5c4OCO5)ncnc3c2)CC1 [saracatinib]
In short: (§1)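 Thermal stability values are relative to control samples and come from duplicates. They are expressed as log2 fold changes. For measurement, K562 cells (2×10^6 cells/mL) received 10 μM compound for 30 min, and aliquots were heated for 3 min over 48°C-58°C, pooled, and extracted at 4°C in PBS with 0.5% NP-40. Soluble protein, the supernatant after 21,000xg for 90 min, was quantified by TMTpro 16plex LC-MS/MS with equalised channel sums.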

sotrastaurin = compound: CN1CCN(c2nc(C3=C(c4c[nH]c5ccccc45)C(=O)NC3=O)c3ccccc3n2)CC1 [sotrastaurin]
In short: as §1

Tubastatin A = compound: CN1CCc2c(c3ccccc3n2Cc2ccc(C(=O)NO)cc2)C1 [Tubastatin A]
In short: as §1

[1] = compound: CNC(=O)C1=CC=CC=C1NC2=NC(=NC=C2Cl)NC3=C(C=C(C=C3)N4CCOCC4)OC
In short: as §1

defactinib = compound: CNC(=O)c1ccc(Nc2ncc(C(F)(F)F)c(NCc3nccnc3N(C)S(C)(=O)=O)n2)cc1 [defactinib]
In short: as §1

rucaparib = compound: CNCc1ccc(-c2[nH]c3cc(F)cc4c3c2CCNC4=O)cc1 [rucaparib]
In short: as §1

[2] = compound: CNc1nc(-c2ccc3c(N)n[nH]c3c2)cc(N2C[C@@H](C(=O)NC3CCCCC3)CC[C@H]2C)n1
In short: as §1

encorafenib = compound: COC(=O)N[C@@H](C)CNc1nccc(-c2cn(C(C)C)nc2-c2cc(Cl)cc(NS(C)(=O)=O)c2F)n1 [encorafenib]
In short: as §1

[3] = compound: COC(=O)[C@H](CCSC)NC(=O)C1=C(C=C(C=C1)NC[C@H](CS)N)C2=CC=CC=C2
In short: as §1

[4] = compound: COC1=CC=C(C=C1)CN2C=CC3=C2C=C(C=C3)C(=O)NO
In short: as §1

filanesib = compound: CON(C)C(=O)N1N=C(c2cc(F)ccc2F)S[C@@]1(CCCN)c1ccccc1 [filanesib]
In short: as §1

zotarolimus = compound: CO[C@H]1C[C@@H]2CC[C@@H](C)[C@@](O)(O2)C(=O)C(=O)N2CCCC[C@H]2C(=O)O[C@H]([C@H](C)C[C@@H]2CC[C@H](n3cnnn3)[C@H](OC)C2)CC(=O)[C@H](C)/C=C(\C)[C@@H](O)[C@@H](OC)C(=O)[C@H](C)C[C@H](C)/C=C/C=C/C=C/1C [zotarolimus]
In short: as §1

idasanutlin = compound: COc1cc(C(=O)O)ccc1NC(=O)[C@@H]1N[C@@H](CC(C)(C)C)[C@](C#N)(c2ccc(Cl)cc2F)[C@H]1c1cccc(Cl)c1F [idasanutlin]
In short: as §1

alisertib = compound: COc1cc(Nc2ncc3c(n2)-c2ccc(Cl)cc2C(c2c(F)cccc2OC)=NC3)ccc1C(=O)O [alisertib]
In short: as §1

[5] = compound: COc1cc2nc(-c3cc(F)ccc3O)nc(N[C@@H]3CNC[C@H]3C(C)(C)O)c2cc1OC
In short: as §1

gefitinib = compound: COc1cc2ncnc(Nc3ccc(F)c(Cl)c3)c2cc1OCCCN1CCOCC1 [gefitinib]
In short: as §1

[6] = compound: COc1cccc2cc(-c3nc([C@H]4CC[C@H](C(=O)O)CC4)n4ncnc(N)c34)[nH]c12
In short: as §1

lapatinib = compound: CS(=O)(=O)CCNCc1ccc(-c2ccc3ncnc(Nc4ccc(OCc5cccc(F)c5)c(Cl)c4)c3c2)o1 [lapatinib]
In short: as §1

pictilisib = compound: CS(=O)(=O)N1CCN(Cc2cc3nc(-c4cccc5[nH]ncc45)nc(N4CCOCC4)c3s2)CC1 [pictilisib]
In short: as §1

Measured: log2 fold change

TMEM70 (UniProt Q9BUB7)
inactive: saracatinib 0.106 | sotrastaurin 0.028 | Tubastatin A 0.011 | [1] 0.142 | defactinib -0.004 | rucaparib -0.057 | [2] -0.001 | encorafenib 0.009 | [3] 0 | [4] -0.041 | filanesib -0.157 | zotarolimus -0.009 | idasanutlin -0.016 | alisertib 0.126 | [5] -0.118 | gefitinib -0.026 | [6] 0.106 | lapatinib -0.039 | pictilisib 0.059

TMEM161B (UniProt Q8NDZ6)
inactive: saracatinib 0.048 | sotrastaurin 0.037 | Tubastatin A -0.007 | [1] -0.043 | defactinib -0.061 | rucaparib 0.013 | [2] -0.049 | encorafenib -0.023 | [3] -0.05 | [4] -0.055 | filanesib -0.008 | zotarolimus -0.035 | idasanutlin -0.16 | alisertib 0.006 | [5] 0.013 | gefitinib 0.087 | [6] -0.015 | lapatinib -0.056 | pictilisib 0.097

TMEM173 (UniProt Q86WV6)
inactive: saracatinib -0.002 | sotrastaurin -0.023 | Tubastatin A 0.03 | [1] 0.014 | defactinib -0.055 | rucaparib -0.078 | [2] 0.034 | encorafenib 0.062 | [3] -0.005 | [4] -0.177 | filanesib 0.007 | zotarolimus 0.025 | idasanutlin -0.209 | alisertib -0.073 | [5] 0.034 | gefitinib -0.013 | [6] -0.008 | lapatinib -0.062 | pictilisib -0.037

TMEM106B (UniProt Q9NUM4)
inactive: saracatinib 0.123 | sotrastaurin 0.027 | Tubastatin A -0.121 | [1] -0.037 | defactinib 0.021 | rucaparib -0.007 | [2] -0.145 | encorafenib -0.037 | [3] -0.059 | [4] 0.021 | filanesib 0.06 | zotarolimus -0.082 | idasanutlin -0.032 | alisertib -0.012 | [5] -0.027 | gefitinib 0.04 | [6] 0.057 | lapatinib -0.005 | pictilisib 0.027

TM7SF3 (UniProt Q9NS93)
inactive: saracatinib 0.072 | sotrastaurin 0.035 | Tubastatin A -0.082 | [1] 0.039 | rucaparib -0.077 | [2] -0.011 | encorafenib 0.089 | [4] -0.002 | filanesib -0.218 | zotarolimus -0.042 | idasanutlin -0.015 | alisertib -0.217 | [5] 0.101 | gefitinib -0.066 | [6] 0.248 | lapatinib 0.014

TMEM8A (UniProt Q9HCN3)
inactive: saracatinib 0.059 | sotrastaurin -0.099 | Tubastatin A 0.108 | [1] -0.042 | defactinib -0.039 | rucaparib 0.004 | [2] 0.02 | encorafenib 0.037 | [3] -0.191 | filanesib 0.188 | zotarolimus -0.093 | alisertib -0.153 | [5] -0.008 | gefitinib -0.038 | [6] 0.085 | lapatinib 0.065 | pictilisib 0.121

TMEM9 (UniProt Q9P0T7)
inactive: saracatinib 0.051 | sotrastaurin -0.025 | Tubastatin A 0.016 | [1] 0.004 | defactinib -0.014 | rucaparib 0.003 | [2] 0.033 | encorafenib 0.033 | [3] 0.004 | [4] -0.085 | filanesib -0.078 | zotarolimus 0.081 | idasanutlin 0.006 | alisertib -0.081 | [5] -0.178 | gefitinib -0.007 | [6] 0.052 | lapatinib 0.04 | pictilisib 0.036

TMEM120A (UniProt Q9BXJ8)
active: rucaparib -0.559
inactive: saracatinib 0.036 | sotrastaurin -0.098 | Tubastatin A 0.069 | [1] -0.013 | defactinib -0.104 | [2] -0.036 | encorafenib 0.184 | [3] -0.047 | [4] -0.2 | filanesib -0.049 | zotarolimus 0.038 | idasanutlin -0.217 | alisertib -0.08 | [5] -0.08 | gefitinib 0.113 | [6] -0.02 | lapatinib 0.06 | pictilisib -0.094

TMBIM1 (UniProt Q969X1)
inactive: saracatinib -0.147 | sotrastaurin 0.012 | Tubastatin A 0.002 | [1] -0.042 | defactinib 0.043 | rucaparib -0.009 | [2] -0.097 | encorafenib -0.223 | [3] 0.051 | filanesib -0.161 | zotarolimus -0.117 | idasanutlin 0.013 | alisertib -0.018 | [5] -0.254 | gefitinib -0.004 | [6] 0.088 | lapatinib 0.172 | pictilisib 0.138

TLK1 (UniProt Q9UKI8)
inactive: saracatinib 0.022 | sotrastaurin -0.011 | Tubastatin A 0.036 | [1] -0.064 | defactinib -0.013 | rucaparib -0.029 | [2] -0.002 | encorafenib 0.022 | [3] -0.033 | [4] -0.011 | filanesib -0.021 | zotarolimus 0.019 | idasanutlin -0.009 | alisertib -0.023 | [5] -0.029 | gefitinib 0.006 | [6] 0.064 | lapatinib -0.018 | pictilisib -0.04

Fetched one by one from above, 2 records:
TMBIM1 (UniProt Q969X1)
inactive: saracatinib -0.147 | sotrastaurin 0.012 | Tubastatin A 0.002 | [1] -0.042 | defactinib 0.043 | rucaparib -0.009 | [2] -0.097 | encorafenib -0.223 | [3] 0.051 | filanesib -0.161 | zotarolimus -0.117 | idasanutlin 0.013 | alisertib -0.018 | [5] -0.254 | gefitinib -0.004 | [6] 0.088 | lapatinib 0.172 | pictilisib 0.138

TMEM161B (UniProt Q8NDZ6)
inactive: saracatinib 0.048 | sotrastaurin 0.037 | Tubastatin A -0.007 | [1] -0.043 | defactinib -0.061 | rucaparib 0.013 | [2] -0.049 | encorafenib -0.023 | [3] -0.05 | [4] -0.055 | filanesib -0.008 | zotarolimus -0.035 | idasanutlin -0.16 | alisertib 0.006 | [5] 0.013 | gefitinib 0.087 | [6] -0.015 | lapatinib -0.056 | pictilisib 0.097

Following part.

TMEM161A (UniProt Q9NX61)
inactive: saracatinib 0.011 | sotrastaurin 0.027 | Tubastatin A 0.039 | [1] -0.108 | defactinib 0.03 | rucaparib -0.106 | [2] -0.029 | encorafenib 0.106 | [3] 0.058 | [4] -0.021 | filanesib -0.148 | zotarolimus -0.072 | idasanutlin -0.167 | alisertib 0.009 | [5] -0.033 | gefitinib -0.01 | [6] 0.051 | lapatinib 0.075 | pictilisib -0.106

TNFAIP2 (UniProt Q03169)
inactive: saracatinib -0.119 | sotrastaurin -0.098 | Tubastatin A 0.105 | [1] -0.244 | [2] 0.086 | filanesib -0.007 | gefitinib -0.006

TM7SF2 (UniProt O76062)
inactive: saracatinib 0.069 | sotrastaurin -0.142 | [1] -0.043 | defactinib -0.006 | [2] 0.018 | [3] -0.096 | filanesib -0.142 | zotarolimus -0.018 | [5] -0.143 | gefitinib 0.059 | lapatinib 0

TNFAIP8 isoform 4 (UniProt O95379)
inactive: saracatinib 0.009 | sotrastaurin -0.125 | Tubastatin A 0.083 | [1] -0.046 | defactinib -0.033 | rucaparib -0.04 | [2] -0.064 | encorafenib -0.016 | [3] -0.015 | [4] 0.027 | filanesib -0.015 | zotarolimus 0.085 | idasanutlin -0.055 | alisertib -0.01 | [5] 0.046 | gefitinib 0.028 | [6] 0.041 | lapatinib 0.065 | pictilisib -0.027

TMEM184C (UniProt Q9NVA4)
inactive: saracatinib 0.022 | sotrastaurin 0.139 | Tubastatin A 0.022 | defactinib -0.049 | rucaparib 0.028 | [2] -0.182 | encorafenib 0.051 | [3] 0.118 | [4] -0.006 | filanesib 0.162 | zotarolimus -0.11 | idasanutlin -0.112 | alisertib 0.059 | gefitinib -0.043 | [6] 0.077 | pictilisib 0.162

TMEM214 (UniProt Q6NUQ4)
active: [5] 0.282
inactive: saracatinib -0.04 | sotrastaurin 0.068 | Tubastatin A 0.062 | [1] -0.002 | defactinib -0.04 | rucaparib 0.121 | [2] 0.03 | encorafenib 0.041 | [3] -0.039 | [4] -0.003 | filanesib 0.185 | zotarolimus -0.013 | idasanutlin -0.045 | alisertib -0.041 | gefitinib -0.012 | [6] -0.111 | lapatinib 0.046 | pictilisib -0.055

TLK2 isoform 2 (UniProt Q86UE8)
inactive: saracatinib 0.048 | sotrastaurin -0.012 | Tubastatin A 0.014 | [1] -0.031 | defactinib 0 | rucaparib -0.051 | [2] -0.003 | encorafenib -0.006 | [3] 0 | [4] -0.019 | filanesib 0.038 | zotarolimus 0.032 | idasanutlin 0.087 | alisertib 0.115 | [5] -0.036 | gefitinib 0.007 | [6] 0.06 | lapatinib 0.041 | pictilisib -0.071
